Where “and” joins values, the source holds several entries; their conditions need not be identical. Equal values may be shown once. The whole screen tested about 340,000 compounds, of which about 170 (0.05%) were called active. The shares of active, inactive and inconclusive entries below differ from those in the screen. Calls follow the shape of the dose curve; as a rule, active = well fitted inhibition curve with a large enough effect in the signal ratio, with a control signal flat (not every such curve was filed as active); inconclusive = small, poorly fitted or top-dose-only effect, or effect the other way, or a change in a side signal; inactive = flat fitted curve, though single readings scatter; the % refers to the signal ratio. Potencies beside an inconclusive call are fits to weak or partial responses and may not hold up.
Experiment: qHTS Assay to Find Inhibitors of Chronic Active B-Cell Receptor Signaling;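 as to activity change, negative = inhibition: plate controls were basal doxycycline-induced cells for no effect and cells given 10 µM MG132 for full effect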
Settings: ABC-DLBCL IkBa-CBG/CBR reporter, luminescence ratio (green luciferase fused to IkBa over red control in TMD8 lymphoma cells), 4 h; activity change, negative = inhibition: at 46.1 µM (top of the series)
Procedure, shortened: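 Concentration-response series (up to 46 uM) were applied to TMD8 dual-reporter cells for 4 h at 37C with doxycycline. Green/red ratio, after filter-overlap correction, defined %Activity; red signal alone was normalised to basal cells and zero luminescence.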
Potency is read from the fitted curve at half-maximal effect.

Row | Compound | Potency | activity change, negative = inhibition
1 | Cc1cc(C)c(C)c(S(=O)(=O)N2CCN(C(=O)c3ccc4c(=O)n5c(nc4c3)CCC5)CC2)c1C | inconclusive: 32.6 µM [falling, partial curve, poor fit] | 
2 | O=[N+]([O-])c1ccccc1S(=O)(=O)N1CCN(C2CCN(Cc3ccccc3)CC2)CC1 |  | inactive
3 | COc1ccc(NC(=O)C23CC4CC(C2)CC(n2cnc(Br)n2)(C4)C3)c(OC)c1 |  | inconclusive: -19.4%
4 | COc1cc(C2CC(=O)c3c(ccc4ccccc34)N2)ccc1O (configuration not stated) | inconclusive: 25.9 µM [falling, single point] | 
5 | COc1ccc(Cn2nnnc2CN(Cc2cc3ccc(C)cc3[nH]c2=O)C2CCCC2)cc1 |  | inactive
6 | C=CCN(c1ccccc1)S(=O)(=O)c1ccc2c(c1)NC(=O)C(C)C(=O)N2 (configuration not stated) |  | inactive
7 | COc1ccc(-c2nn3c(-c4ccco4)nnc3s2)cc1OC |  | inactive
8 | CCn1c(SCC(=O)N/N=C(/C)c2ccncc2)nc2ccccc21 |  | inactive
9 | CS(=O)(=O)c1ccc(N2CCN(S(=O)(=O)c3cccs3)CC2)c([N+](=O)[O-])c1 |  | inconclusive: -0.863%
10 | Oc1ccccc1N1CCN(c2ncnc3scc(-c4ccc(F)cc4)c23)CC1 | inconclusive: 15.8 µM [rising, single point] | 
11 | Cc1cc(N/N=C/c2ccccc2F)nc(NCc2ccccc2)n1 |  | inactive
12 | C=CCNC(=S)NCc1ccccc1OC |  | inactive
13 | Fc1ccccc1OCCSc1ncnc2nc[nH]c12 | inconclusive: 35.5 µM [falling, single point] | 
14 | COc1ccc(N(CC(=O)Nc2cccc(SC)c2)S(C)(=O)=O)cc1Cl | inconclusive: 10 µM [falling, partial curve, poor fit] | 
15 | O=C(CCN1CCN(c2ccccc2)CC1)N/N=C/c1ccccc1OC(F)F |  | inactive
16 | CC(=O)c1cccc(NC(=O)Nc2ccc(C(=O)N3CCCC3)cc2)c1 |  | inactive
17 | COc1ccc(CC(=O)Nc2ccc(S(=O)(=O)N3CCC(C)CC3)cc2)c(OC)c1 |  | inactive
18 | CCOc1ccc2nc(Nc3nc4ccc(NC(C)=O)cc4s3)sc2c1 | inconclusive: 20.6 µM [falling, single point] | 
19 | COc1ccccc1C1CC(=O)NC(C)=C1C(=O)OCC1CCCO1 (configuration not stated) |  | inactive
20 | O=C(NCCO)/C(=C/c1cccc([N+](=O)[O-])c1)NC(=O)c1ccco1 |  | inconclusive: 7.98%
21 | CCOc1ccc(CC(=O)Nc2cccc(-c3ccc4nnc(C)n4n3)c2)cc1 |  | inconclusive: -23.4%

5 of the compounds above, with tabs:
Row	Compound	Potency	activity change, negative = inhibition
6	C=CCN(c1ccccc1)S(=O)(=O)c1ccc2c(c1)NC(=O)C(C)C(=O)N2 (configuration not stated)		inactive
9	CS(=O)(=O)c1ccc(N2CCN(S(=O)(=O)c3cccs3)CC2)c([N+](=O)[O-])c1		inconclusive: -0.863%
14	COc1ccc(N(CC(=O)Nc2cccc(SC)c2)S(C)(=O)=O)cc1Cl	inconclusive: 10 µM [falling, partial curve, poor fit]	
16	CC(=O)c1cccc(NC(=O)Nc2ccc(C(=O)N3CCCC3)cc2)c1		inactive
19	COc1ccccc1C1CC(=O)NC(C)=C1C(=O)OCC1CCCO1 (configuration not stated)		inactive

The list goes on.

Row | Compound | Potency | activity change, negative = inhibition
22 | Cc1ccc(C(=O)CN(CCC(=O)O)C(=O)c2ccncc2)cc1 |  | inactive
23 | O=C(Nc1ccc(F)cc1)Nc1ccc2ccccc2n1 |  | inconclusive: 14.5%
24 | O=C(OCCNC(=O)c1ccc2ccccc2n1)c1cccnc1 | inconclusive: 18.4 µM [falling, partial curve, poor fit] | 
25 | CCc1oc2ccccc2c1C(=O)c1cc(Br)c(O)c(Br)c1 |  | inconclusive: 16.8% and inconclusive: 5.49%
26 | CC(C)(C)OC(=O)N1CCNc2ccccc2C1 |  | inactive
27 | Cc1cc(C(=O)CCl)c(C)n1Cc1ccco1 |  | inactive
28 | O=C(NCCC(=O)N1CCN(c2ccccc2O)CC1)c1ccc(Cl)cc1 |  | inactive
29 | NC(=O)c1ccc(NC(=O)C#Cc2ccccc2)cc1 | inconclusive: 35.5 µM [cytotoxic, single point] | 
30 | O=C(N/N=C/c1ccc(COc2ccc(Br)cc2)o1)c1ccco1 |  | inconclusive: -0.467%
31 | CC(=O)N1CCN(S(=O)(=O)c2cccc(C(=O)NNC(=O)COc3ccc(Cl)cc3C)c2)CC1 |  | inactive
32 | COCCn1c(C)nnc1SCC(=O)Nc1ccccc1[N+](=O)[O-] |  | inactive
33 | COc1ccc(/C=C/C(=O)c2ccccc2O)cc1CN1CCOCC1 |  | inconclusive: 1.32%
34 | O=S(=O)(CC(CN1CCCCC1)N1CCCCC1)c1ccc2ccccc2c1 (configuration not stated) |  | inconclusive: 4.17%
35 | CS(=O)(=O)N(CC(N)=O)c1ccc2c(c1)OCO2 |  | inconclusive: 5.26%
36 | Cc1ccc2c(c1)c1c3n2CCN=C3CCC1 |  | inactive
37 | COc1cc(NC(=O)COC(=O)CNC(=O)c2ccc(Cl)cc2)c(C)cc1[N+](=O)[O-] |  | inconclusive: 2.52%
38 | O=C(O)c1ccccc1-n1cnnn1 |  | inconclusive: -1.79%
39 | C/C(=N/NC(=O)c1cccc(N2CCCC2=O)c1)c1ccncc1 | inconclusive: 3.98 µM [falling, partial curve, poor fit] | 
40 | O=C(Nc1cccc(Br)c1)c1cc(S(=O)(=O)N2CCCCC2)c[nH]1 |  | inconclusive: -0.734%
41 | CSc1nnc(-c2ccc(F)cc2)o1 |  | inconclusive: 3.2%
42 | CN(CC(=O)OCC(=O)NC1CCCC1)S(=O)(=O)c1ccc(Cl)cc1 |  | inconclusive: -0.939%

Row | Compound | Potency | activity change, negative = inhibition
43 | COc1ccc(Cl)cc1NC(=O)c1nnn(CC(=O)Nc2ccc(C)c(C)c2)c1N |  | inactive
44 | COc1ccc(NS(=O)(=O)c2cccc(C(=O)NCC(c3cccs3)N3CCOCC3)c2)cc1 (configuration not stated) |  | inconclusive: 0.465%
45 | O=C1CCC(C(=O)N2CCCC(C(=O)c3ccc4c5c(cccc35)CC4)C2)=NN1 (configuration not stated) | inconclusive: 20 µM [falling, partial curve, poor fit] | 
46 | O=C(Nc1nc(-c2cccs2)c(-c2cccs2)s1)C1(c2ccccc2)CC1 |  | inactive
47 | COc1ccc(OC)c(NC(=O)CSc2nnnn2-c2ccc3c(c2)OCO3)c1 | inconclusive: 32.6 µM [falling, partial curve, poor fit] | 
48 | CC(C)(C)CC(C)(C)NCC(O)COc1c(F)cc(Br)cc1F (configuration not stated) | inconclusive: 32.6 µM [falling, single point] | 
49 | CN(C(=O)CSc1nnc(-c2cccnc2)n1-c1ccccc1F)C1CCS(=O)(=O)C1 (configuration not stated) |  | inconclusive: 11.4%
50 | COCCNC(=S)N/N=C(\C)CCc1ccc2c(c1)OCO2 | active: 20 µM | 
51 | Cc1cccc(C(=O)Nc2ccc(CC(=O)O)cc2)c1 |  | inconclusive: 16.5%
52 | CSc1ncccc1C(=O)OCc1nc2ccsc2c(=O)[nH]1 |  | inactive
53 | C[C@H](NC(=O)c1nc[nH]c1C(=O)N1CCc2ccccc2C1)c1ccccc1 | inconclusive: 8.2 µM [rising, partial curve, poor fit] | 
54 | Cn1c(SCC(=O)C(C)(C)C)nnc1-c1cccnc1 |  | inactive
55 | CC(=O)Nc1nc(COc2ccccc2)cs1 | inconclusive: 18.4 µM [falling, single point] | 
56 | O=S(=O)(CC12C3C4C5C1C2C(Br)(C43)C51OCCO1)c1ccccc1 (configuration not stated) |  | inconclusive: -0.831%
57 | CCCN(C1CCS(=O)(=O)C1)S(=O)(=O)c1ccc(F)cc1 (configuration not stated) |  | inactive
58 | O=C1c2ccccc2NC2(CCCC2)N1N=C1CCCC1 | inconclusive: 22.4 µM [falling, single point] | 
59 | COc1ccc(C(C)=O)cc1CSc1nnc(Nc2ccccc2)s1 |  | inconclusive: -13.8%
60 | CCCCN(C)S(=O)(=O)c1ccc(C(=O)Nc2sc3c(c2C(=O)OCC)CCN(C(C)C)C3)cc1 |  | inactive
61 | CCOC(=O)c1c(C)[nH]c(C(=O)OCc2csc(CC(=O)Nc3ccccc3C)n2)c1C |  | inactive
62 | Cc1ccc(C(=O)Nc2nccs2)s1 |  | inconclusive: 0.917%
63 | COC(C(=O)Nc1ccc(S(=O)(=O)Nc2ccc(F)cc2)cc1)c1ccccc1 (configuration not stated) |  | inconclusive: 14.4%

Row | Compound | Potency | activity change, negative = inhibition
64 | COCCn1cc(C(=O)NCCCN2CCC(C)CC2)c2c3ccccc3n(C)c2c1=O |  | inconclusive: -2.83%
65 | Cc1ccccc1C(=O)Nc1ccc2c(c1)OCCO2 | inconclusive: 12.6 µM [falling, partial curve] | 
66 | COc1nc(-c2ccccc2)ccc1-c1noc(-c2ccccc2)n1 |  | inactive
67 | CNS(=O)(=O)c1cccc(C(=O)OCC(=O)NCc2ccccc2)c1 |  | inconclusive: -11.8%
68 | CCOC(=O)c1c(NC(=O)c2ccc(S(=O)(=O)N3CCCC(C)C3)cc2)sc2c1CC(C)(C)NC2(C)C (configuration not stated) |  | inconclusive: -18.4%
69 | O=C(Oc1ccccc1)c1ccc(COC(=O)c2cnccn2)cc1 |  | inconclusive: 14.2%
70 | COc1ccc(OC)c(N/C=C/C(=C(C#N)C#N)N(C)C)c1 |  | inconclusive: 0.572%
71 | COc1ccc(N(Cc2cc3cc(OC)ccc3[nH]c2=O)S(C)(=O)=O)cc1 | inconclusive: 15.8 µM [falling, single point] | 
72 | COc1ccc(N2CCN(C(c3ccccc3OC)c3nnnn3C3CCCC3)CC2)cc1 (configuration not stated) |  | inactive
73 | CCCCC(=O)Nc1ccc(NC(=S)NC(=O)CCCCl)cc1OC | inconclusive: 4.61 µM [falling, single point] | 
74 | Cc1nc2c(=O)n(C)c(=O)n(C)c2nc1Cl | inconclusive: 6.51 µM [falling, single point] | 
75 | O=C(OCC(=O)N1CCN(c2ccc(F)cc2)CC1)c1cnc2ccccc2n1 |  | inconclusive: 5.34%
76 | CN(C)C(CNC(=O)c1cc(S(=O)(=O)N(C)c2ccccc2)ccc1Cl)c1cccs1 (configuration not stated) |  | inconclusive: -8.69%
77 | Cc1cc(C)n(-c2nc(NC(C)C)nc(NC(C)C)n2)n1 | inconclusive: 5.62 µM [falling, single point] | 
78 | O=C(NC1CC(=O)N(c2ccc(F)cc2)C1)c1ccc(S(=O)(=O)N2CCOCC2)cc1 (configuration not stated) |  | inconclusive: 17.1%
79 | Cc1cc(/C=C(\C#N)C(=O)NCCc2c[nH]c3ccccc23)c(C)n1C |  | inconclusive: -13.2%
80 | Cc1ccc(-c2ccc(CCC(=O)O)n2NC(N)=S)cc1 |  | inactive
81 | Cc1cc2c(c(C)c1CCO[C@@H]1O[C@H](CO)[C@@H](O)[C@H](O)[C@H]1O)C(=O)[C@@H](C)[C@@H]2O |  | inactive
82 | O=C(O)c1cccc(-c2nc3ccccc3[nH]2)c1 | inconclusive: 18.4 µM [falling, partial curve] | 
